Test system: HeLa cells
Assay: MTT cell viability assay, HeLa cells
Type: cell-based
Method: MCF-7, HeLa, and RAW264.7 cells were cultured in DMEM supplemented with 10% FBS and 1% penicillin/streptomycin. Cell culture was maintained at 37 °C in a 5% CO2 incubator.
The assessment of cell viability was performed using an MTT assay to assess the cytotoxic effects of CCL on MCF-7, Hela, and RAW264.7 cells. Initially, MCF-7, HeLa, and RAW264.7 cells were seeded onto 96-well plates at a density of 2 × 10^4 cells/mL. Following a 24-h incubation period, the culture medium was replaced with a serum-free medium containing specified concentrations of CCL, verbascoside, isoverbascoside, and hispidulin ranging from 12.5 to 1000 µg/mL. Following 24, 48, and 72 h of treatment, an MTT solution (0.5 mg/mL in culture medium) was added to each well and incubated at 37 °C for 2 h. The metabolically active cells converted MTT into formazan crystals, which were then dissolved in 100 µL of DMSO per well. Absorbance was recorded at 550 nm using a SpectraMax 3 microplate reader (Molecular Devices, San Jose, CA, USA). The IC50 values were determined using GraphPad Prism v.7.0 (La Jolla, CA, USA). Cell viability was assessed in comparison to untreated control cells using the following equation: Cell viability %=A550sample/A550control×100%

| SMILES | toxicity comparison ratio (IC50 of RAW 264.7/IC50 of HeLa) (24 h) | toxicity comparison ratio (IC50 of RAW 264.7/IC50 of HeLa) (48 h) | toxicity comparison ratio (IC50 of RAW 264.7/IC50 of HeLa) (72 h) |
| --- | --- | --- | --- |
| COc1c(O)cc2oc(-c3ccc(O)cc3)cc(=O)c2c1O [Hispidulin] | 1.0 | 1.0 | 0.6 |
| C[C@@H]1O[C@@H](O[C@@H]2[C@@H](O)[C@H](OCCc3ccc(O)c(O)c3)O[C@H](CO)[C@H]2OC(=O)/C=C/c2ccc(O)c(O)c2)[C@H](O)[C@H](O)[C@H]1O [Verbascoside] | 1.2 | 1.5 | 1.4 |
